Test results published in the supplement of paper PMC11732987, “Enantioselective OTUD7B fragment discovery through chemoproteomics screening and high-throughput optimisation” (Communications Chemistry, 2025).
The other results are listed elsewhere or left out. The data scatter; read single values as rough.

The chains behind the UniProt entries cited, without tags or fusion partners. Where a name states a change or a piece, a line headed by the entry shows the natural chain unless it says otherwise. Residues count along the entry.
UniProt Q9Y4K3, 366-388: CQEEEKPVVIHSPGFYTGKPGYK
UniProt Q96AN5: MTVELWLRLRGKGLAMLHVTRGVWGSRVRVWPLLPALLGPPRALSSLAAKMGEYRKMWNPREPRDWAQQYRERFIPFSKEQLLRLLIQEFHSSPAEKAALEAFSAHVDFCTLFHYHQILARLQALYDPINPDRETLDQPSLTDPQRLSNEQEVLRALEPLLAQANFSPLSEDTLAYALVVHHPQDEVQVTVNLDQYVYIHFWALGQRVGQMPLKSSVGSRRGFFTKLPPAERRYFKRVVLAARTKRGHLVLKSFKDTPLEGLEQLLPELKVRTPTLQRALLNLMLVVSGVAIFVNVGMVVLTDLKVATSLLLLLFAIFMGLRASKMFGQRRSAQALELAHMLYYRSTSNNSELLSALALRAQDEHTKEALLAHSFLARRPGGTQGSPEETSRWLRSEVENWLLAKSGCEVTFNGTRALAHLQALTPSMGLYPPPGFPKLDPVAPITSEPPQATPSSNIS
UniProt P82094, 399-426: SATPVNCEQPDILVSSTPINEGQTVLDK
UniProt Q96DC7: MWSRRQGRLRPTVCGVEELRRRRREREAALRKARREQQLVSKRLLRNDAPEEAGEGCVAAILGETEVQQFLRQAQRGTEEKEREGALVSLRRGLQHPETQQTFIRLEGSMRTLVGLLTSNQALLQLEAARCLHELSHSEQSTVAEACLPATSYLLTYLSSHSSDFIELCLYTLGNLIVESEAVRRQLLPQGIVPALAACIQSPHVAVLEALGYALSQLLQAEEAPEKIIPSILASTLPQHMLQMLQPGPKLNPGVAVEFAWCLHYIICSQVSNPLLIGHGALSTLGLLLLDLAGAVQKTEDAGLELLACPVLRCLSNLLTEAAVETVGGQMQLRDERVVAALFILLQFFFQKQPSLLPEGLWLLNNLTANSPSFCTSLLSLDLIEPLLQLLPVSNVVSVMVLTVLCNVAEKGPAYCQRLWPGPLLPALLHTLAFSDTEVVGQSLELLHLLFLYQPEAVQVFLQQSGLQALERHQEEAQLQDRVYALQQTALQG
UniProt Q9ULW0, 84-111: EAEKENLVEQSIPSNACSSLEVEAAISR
UniProt Q96LD4: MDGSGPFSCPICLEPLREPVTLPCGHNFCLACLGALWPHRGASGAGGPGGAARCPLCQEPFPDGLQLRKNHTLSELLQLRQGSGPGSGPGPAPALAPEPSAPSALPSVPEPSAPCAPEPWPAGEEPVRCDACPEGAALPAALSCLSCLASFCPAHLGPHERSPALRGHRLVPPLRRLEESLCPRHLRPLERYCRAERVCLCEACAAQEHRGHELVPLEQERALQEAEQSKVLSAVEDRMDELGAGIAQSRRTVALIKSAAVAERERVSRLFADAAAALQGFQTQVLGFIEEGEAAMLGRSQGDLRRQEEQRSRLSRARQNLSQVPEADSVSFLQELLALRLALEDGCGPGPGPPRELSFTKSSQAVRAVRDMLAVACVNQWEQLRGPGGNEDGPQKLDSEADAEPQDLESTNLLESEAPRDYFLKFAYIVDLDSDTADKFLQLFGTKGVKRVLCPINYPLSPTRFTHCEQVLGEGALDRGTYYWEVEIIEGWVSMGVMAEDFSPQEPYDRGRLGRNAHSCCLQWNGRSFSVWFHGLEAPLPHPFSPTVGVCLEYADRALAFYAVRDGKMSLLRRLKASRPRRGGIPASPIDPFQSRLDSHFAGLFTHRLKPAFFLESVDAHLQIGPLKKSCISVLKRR
UniProt O14545: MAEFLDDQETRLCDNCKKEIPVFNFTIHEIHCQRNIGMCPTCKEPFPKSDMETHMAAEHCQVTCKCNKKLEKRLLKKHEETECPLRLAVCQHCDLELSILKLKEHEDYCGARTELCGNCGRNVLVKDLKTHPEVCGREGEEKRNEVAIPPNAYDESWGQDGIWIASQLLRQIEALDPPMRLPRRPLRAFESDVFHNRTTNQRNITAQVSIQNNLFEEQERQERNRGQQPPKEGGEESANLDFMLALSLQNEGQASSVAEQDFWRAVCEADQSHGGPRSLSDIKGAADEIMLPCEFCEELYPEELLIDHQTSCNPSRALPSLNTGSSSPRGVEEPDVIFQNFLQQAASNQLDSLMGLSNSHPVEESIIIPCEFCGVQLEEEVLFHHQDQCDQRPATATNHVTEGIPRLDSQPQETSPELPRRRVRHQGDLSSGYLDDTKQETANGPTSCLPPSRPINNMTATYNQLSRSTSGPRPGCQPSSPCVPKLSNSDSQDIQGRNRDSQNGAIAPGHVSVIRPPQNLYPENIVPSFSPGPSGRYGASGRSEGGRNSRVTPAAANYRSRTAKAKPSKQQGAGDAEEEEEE
UniProt Q04727: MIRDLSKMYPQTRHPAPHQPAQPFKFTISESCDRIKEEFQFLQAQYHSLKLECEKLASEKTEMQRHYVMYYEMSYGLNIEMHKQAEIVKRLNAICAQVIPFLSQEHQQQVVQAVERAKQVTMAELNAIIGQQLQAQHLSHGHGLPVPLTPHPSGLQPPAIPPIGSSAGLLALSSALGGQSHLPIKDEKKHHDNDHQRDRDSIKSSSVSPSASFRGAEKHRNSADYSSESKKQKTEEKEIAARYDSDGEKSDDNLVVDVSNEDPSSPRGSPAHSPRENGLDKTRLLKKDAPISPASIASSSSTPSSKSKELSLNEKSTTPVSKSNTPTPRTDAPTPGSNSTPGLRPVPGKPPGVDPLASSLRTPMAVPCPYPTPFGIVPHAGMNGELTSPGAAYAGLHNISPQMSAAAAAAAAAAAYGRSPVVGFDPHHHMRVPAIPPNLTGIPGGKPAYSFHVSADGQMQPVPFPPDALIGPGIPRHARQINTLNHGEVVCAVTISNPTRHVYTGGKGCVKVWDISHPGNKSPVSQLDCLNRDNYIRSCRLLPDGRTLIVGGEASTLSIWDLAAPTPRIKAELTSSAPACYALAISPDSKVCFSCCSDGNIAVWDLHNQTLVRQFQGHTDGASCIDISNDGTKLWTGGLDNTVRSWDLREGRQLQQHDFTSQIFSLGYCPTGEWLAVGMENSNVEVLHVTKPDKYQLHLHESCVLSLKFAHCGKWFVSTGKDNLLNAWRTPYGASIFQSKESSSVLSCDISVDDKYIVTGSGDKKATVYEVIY
UniProt Q5JTV8: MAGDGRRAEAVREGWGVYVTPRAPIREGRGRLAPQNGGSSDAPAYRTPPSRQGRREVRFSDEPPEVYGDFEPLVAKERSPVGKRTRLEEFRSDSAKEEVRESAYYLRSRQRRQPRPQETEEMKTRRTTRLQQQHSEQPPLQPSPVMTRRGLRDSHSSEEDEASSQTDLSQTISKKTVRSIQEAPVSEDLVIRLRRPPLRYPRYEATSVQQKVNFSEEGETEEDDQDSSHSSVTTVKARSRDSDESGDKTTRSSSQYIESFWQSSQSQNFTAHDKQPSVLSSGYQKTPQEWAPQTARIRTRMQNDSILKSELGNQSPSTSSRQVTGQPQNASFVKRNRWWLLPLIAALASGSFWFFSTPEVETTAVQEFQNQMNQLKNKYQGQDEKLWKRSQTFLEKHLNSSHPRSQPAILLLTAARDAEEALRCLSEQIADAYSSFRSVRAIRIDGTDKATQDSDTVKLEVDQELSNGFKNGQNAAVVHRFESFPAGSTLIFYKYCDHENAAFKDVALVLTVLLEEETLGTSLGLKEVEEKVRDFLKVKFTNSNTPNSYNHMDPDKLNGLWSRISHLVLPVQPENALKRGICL
UniProt Q9UPQ9, whole entry, looked up: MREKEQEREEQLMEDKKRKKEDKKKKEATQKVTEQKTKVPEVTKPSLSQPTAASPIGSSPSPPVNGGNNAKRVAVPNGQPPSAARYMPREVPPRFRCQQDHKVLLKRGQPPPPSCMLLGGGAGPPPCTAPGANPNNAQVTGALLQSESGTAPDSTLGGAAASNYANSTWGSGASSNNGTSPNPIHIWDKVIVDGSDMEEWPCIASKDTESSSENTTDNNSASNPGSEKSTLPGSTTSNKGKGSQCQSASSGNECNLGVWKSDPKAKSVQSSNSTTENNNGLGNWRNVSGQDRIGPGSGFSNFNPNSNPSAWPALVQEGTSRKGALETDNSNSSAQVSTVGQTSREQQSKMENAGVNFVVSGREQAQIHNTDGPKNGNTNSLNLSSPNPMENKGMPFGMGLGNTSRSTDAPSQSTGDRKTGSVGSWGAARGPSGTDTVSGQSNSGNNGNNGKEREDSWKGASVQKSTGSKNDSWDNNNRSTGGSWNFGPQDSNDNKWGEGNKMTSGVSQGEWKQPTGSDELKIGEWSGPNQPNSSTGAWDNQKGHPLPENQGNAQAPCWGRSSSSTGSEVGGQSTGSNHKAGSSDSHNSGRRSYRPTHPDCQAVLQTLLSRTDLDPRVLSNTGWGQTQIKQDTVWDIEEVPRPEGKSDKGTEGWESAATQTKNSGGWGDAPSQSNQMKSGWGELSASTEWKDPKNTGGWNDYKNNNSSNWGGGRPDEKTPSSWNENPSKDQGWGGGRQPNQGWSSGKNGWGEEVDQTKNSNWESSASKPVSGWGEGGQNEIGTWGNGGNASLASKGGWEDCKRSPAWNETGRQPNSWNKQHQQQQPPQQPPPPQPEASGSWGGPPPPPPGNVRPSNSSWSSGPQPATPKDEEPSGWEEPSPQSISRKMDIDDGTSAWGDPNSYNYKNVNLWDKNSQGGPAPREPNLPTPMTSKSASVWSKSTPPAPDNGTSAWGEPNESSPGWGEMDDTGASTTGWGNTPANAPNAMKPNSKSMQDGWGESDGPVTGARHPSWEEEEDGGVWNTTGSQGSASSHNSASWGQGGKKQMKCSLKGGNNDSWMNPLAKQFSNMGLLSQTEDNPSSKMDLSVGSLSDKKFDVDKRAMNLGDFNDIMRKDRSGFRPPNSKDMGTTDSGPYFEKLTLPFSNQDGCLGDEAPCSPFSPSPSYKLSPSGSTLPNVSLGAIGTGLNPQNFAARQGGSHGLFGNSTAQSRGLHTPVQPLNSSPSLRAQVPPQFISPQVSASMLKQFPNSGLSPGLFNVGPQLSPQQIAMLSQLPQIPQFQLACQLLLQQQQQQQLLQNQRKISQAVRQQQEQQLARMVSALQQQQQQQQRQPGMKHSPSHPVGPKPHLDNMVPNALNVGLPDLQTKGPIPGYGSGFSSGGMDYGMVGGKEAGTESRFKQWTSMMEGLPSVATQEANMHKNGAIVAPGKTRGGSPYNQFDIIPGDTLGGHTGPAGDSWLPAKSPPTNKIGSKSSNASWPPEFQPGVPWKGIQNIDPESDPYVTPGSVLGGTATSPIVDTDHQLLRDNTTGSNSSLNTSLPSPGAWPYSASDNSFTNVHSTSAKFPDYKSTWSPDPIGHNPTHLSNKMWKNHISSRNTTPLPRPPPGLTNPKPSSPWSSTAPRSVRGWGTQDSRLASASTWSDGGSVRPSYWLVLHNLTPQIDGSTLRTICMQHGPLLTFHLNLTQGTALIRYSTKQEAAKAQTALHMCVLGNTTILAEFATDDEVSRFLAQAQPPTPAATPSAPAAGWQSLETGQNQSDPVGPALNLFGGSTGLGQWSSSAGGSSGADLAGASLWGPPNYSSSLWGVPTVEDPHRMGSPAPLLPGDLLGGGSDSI
UniProt Q92973: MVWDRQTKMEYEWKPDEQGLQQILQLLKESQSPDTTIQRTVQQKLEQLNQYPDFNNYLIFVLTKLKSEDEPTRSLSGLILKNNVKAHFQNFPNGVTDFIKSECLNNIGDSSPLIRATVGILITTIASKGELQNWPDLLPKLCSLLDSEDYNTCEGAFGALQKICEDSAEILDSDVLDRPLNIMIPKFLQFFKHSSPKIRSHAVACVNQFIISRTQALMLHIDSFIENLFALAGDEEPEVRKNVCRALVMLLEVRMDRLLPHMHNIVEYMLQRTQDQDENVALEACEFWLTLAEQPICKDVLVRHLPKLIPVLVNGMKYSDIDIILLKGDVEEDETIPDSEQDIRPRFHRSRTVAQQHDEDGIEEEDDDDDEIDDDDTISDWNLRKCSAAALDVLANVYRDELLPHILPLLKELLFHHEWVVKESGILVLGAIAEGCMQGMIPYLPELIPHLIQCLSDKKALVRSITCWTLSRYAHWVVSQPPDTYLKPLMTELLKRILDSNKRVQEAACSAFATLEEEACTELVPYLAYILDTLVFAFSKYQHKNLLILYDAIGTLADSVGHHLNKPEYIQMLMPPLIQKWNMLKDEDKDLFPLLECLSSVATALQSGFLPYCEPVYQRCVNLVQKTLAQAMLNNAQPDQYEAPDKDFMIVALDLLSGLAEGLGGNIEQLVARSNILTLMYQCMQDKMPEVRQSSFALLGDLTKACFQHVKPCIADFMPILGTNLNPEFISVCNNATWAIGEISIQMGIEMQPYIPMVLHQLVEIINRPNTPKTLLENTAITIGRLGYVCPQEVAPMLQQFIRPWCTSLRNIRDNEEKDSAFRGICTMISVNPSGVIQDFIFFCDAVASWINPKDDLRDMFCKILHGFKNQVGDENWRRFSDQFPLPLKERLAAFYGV

compound: ClCC(=O)N[C@H]1CCCc2ccccc12; assay: log2 mean competition ratio of IA-DTB cysteine labelling (DMSO/compound) (log2 ratio); higher = stronger cysteine engagement by compound; conditions: 50 µM; treatment time: 4 h; cell line lysate: HEK293T
Procedure: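 IA-DTB competitive cysteine chemoproteomics in HEK293T RIPA lysate. Lysates were treated with compound 29 or 30 at 50 or 200 µM for 4 h, then IA-DTB (500 µM, 1 h), trypsin-digested, NeutrAvidin-enriched and analysed by diaPASEF. Competition ratio = intensity DMSO / intensity compound (n=4 treated, n=64 DMSO); binding: mean log2 CR ≥ 1 and p ≤ 0.05 plus QC filters. Target is the cysteine site.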

Target | log2 mean competition ratio
TRAF6 C366 (UniProt Q9Y4K3) | 0.0624
TMEM143 C408 (UniProt Q96AN5) | -0.0515
TOR3A C385 (UniProt Q9H497) | 0.0381
TMF1 C405 (UniProt P82094) | 0.413
TMCO6 C309 (UniProt Q96DC7) | -0.236
TOP2A C170 (UniProt P11388) | 0.106
TMCC3 C180 (UniProt Q9ULS5) | 0.198
TPX2 C364 (UniProt Q9ULW0) | -0.212
TRIM47 C347 (UniProt Q96LD4) | 0.273
TMEM102 C162 (UniProt Q8N9M5) | -0.0212
TNPO3 C125 (UniProt Q9Y5L0) | -0.013
TRIO C2599 (UniProt O75962) | -0.327
TRAFD1 C135 (UniProt O14545) | -0.131
TPX2 C100 (UniProt Q9ULW0) | 0.0493
TLE4 C32 (UniProt Q04727) | -0.0218
TOR1AIP1 C424 (UniProt Q5JTV8) | 0.385
TMEM214 C529 (UniProt Q6NUQ4) | -0.192
TNRC6B C800 (UniProt Q9UPQ9) | 0.715
TNPO1 C862 (UniProt Q92973) | -0.0815
TRERF1 C1065 | 0.0759

same assay, conditions: 200 µM; treatment time: 4 h; cell line lysate: HEK293T

Target | log2 mean competition ratio
TRAF6 C366 (UniProt Q9Y4K3) | -0.252
TMEM143 C408 (UniProt Q96AN5) | -0.2
TOR3A C385 (UniProt Q9H497) | 0.126
TMF1 C405 (UniProt P82094) | -0.48
TMCO6 C309 (UniProt Q96DC7) | 0.925
TOP2A C170 (UniProt P11388) | -0.0178
TMCC3 C180 (UniProt Q9ULS5) | -0.143
TPX2 C364 (UniProt Q9ULW0) | 0.106
TRIM47 C347 (UniProt Q96LD4) | -0.028
TMEM102 C162 (UniProt Q8N9M5) | 0.116
TNPO3 C125 (UniProt Q9Y5L0) | -0.149
TRIO C2599 (UniProt O75962) | -0.38
TRAFD1 C135 (UniProt O14545) | 0.0983
TPX2 C100 (UniProt Q9ULW0) | -0.28
TLE4 C32 (UniProt Q04727) | 0.0965
TOR1AIP1 C424 (UniProt Q5JTV8) | 0.231
TMEM214 C529 (UniProt Q6NUQ4) | -0.129
TNRC6B C800 (UniProt Q9UPQ9) | 0.032
TNPO1 C862 (UniProt Q92973) | 0.175
TRERF1 C1065 | 0.427
